Source: PubChem BioAssay AID588497 (NMMLSC, 2011)
In all, about 360,000 compounds went through this assay and about 780 (0.22%) were called active. Inconclusive means that the source gave no clear call. Such entries were picked first, then a sample of the others. No stated cut-off is given here; in the data, active means inhibition above about 35% (passing the limit was not always enough); inconclusive means no clear call, values can overlap the other calls.

Each compound was assayed on Botulinum neurotoxin type F light chain protease (Clostridium botulinum) (assay: BoNT/F light chain protease inhibitors, primary screen, biochemical, flow cytometry, MLPCN library (AID 588497; further: plate controls were buffer without enzyme for full effect and enzyme alone for no effect)). Settings: Multiplex microsphere protease cleavage assay, at 10 µM, stronger effect = higher value.
With `O=C(Nc1cccc(F)c1)C1CCCN1S(=O)(=O)c1cccc2cccnc12` (centres undefined) the inhibition was inactive: 3.7%.
In the case of `COC(=O)/C(C#N)=C\c1c(OC)[nH]c2ccccc12`, the inhibition was inconclusive: 13.2%.
`COc1ccc(CN2CCN(S(=O)(=O)c3ccccc3)CC2)c(OC)c1OC` was tested, and the inhibition was inconclusive: -46.6%.
`CN(C)c1ccc(-c2nc3cc(N)ccc3o2)cc1` was tested, and the inhibition was inconclusive: -19.2%.
With `CCN(CC)C(=O)CSc1nc2ccccc2c(=O)n1OC(C)C` the inhibition was inactive: -3.3%.
For `Cc1c(C(=O)NCc2cccnc2)oc2ccccc12`, the inhibition was inactive: -3.4%.
`CCOc1cc(Cl)c(S(=O)(=O)NCc2cccnc2)cc1Cl` was tested, and the inhibition was inactive: -1.3%.
For `CCOC(=O)c1nccnc1C(=O)Nc1cccc(C(F)(F)F)c1`, the inhibition was inactive: 2.7%.
With `O=C(Cn1cc(COc2c(F)c(F)c(Br)c(F)c2F)nn1)c1ccc(O)cc1` the inhibition was inactive: -2.9%.
`CCc1ccc(C(=O)CN2C(=O)C(C)N(c3ccc(C)cc3)C2=O)cc1` (centres undefined) was tested, and the inhibition was active: 49.9%.
For `O=S(=O)(Nc1cccnc1)c1ccc(Br)c2ccccc12`, the inhibition was inconclusive: -22.7%.
With `Nc1ccc(S(=O)(=O)Nc2nccc(/C=C/c3cccc(Br)c3)n2)cc1` the inhibition was active: 36.7%.
In the case of `CCOC(=O)c1sc(=S)n(-c2ccc(OC)cc2)c1C`, the inhibition was inconclusive: -45.2%.
For `O=C(CSc1n[nH]c(=O)n1Cc1ccco1)c1ccc(F)cc1`, the inhibition was inconclusive: -33.7%.
`Cc1csc(NC(=O)CCCC(=O)O)c1-c1nc2ccccc2s1` was tested, and the inhibition was inconclusive: 3.7%.
For `CCN1C(=O)c2cccc3c(N)ccc(c23)C1=O`, the inhibition was inconclusive: 2.8%.
For `CC(C)(C)c1ccc(OCc2ccc(C(=O)NN)o2)cc1`, the inhibition was inconclusive: -29.4%.
With `Cc1ccc(S(=O)(=O)Nc2cccnc2Oc2ccc(Cl)cc2)cc1` the inhibition was inconclusive: 40.3%.
For `Cc1noc(C)c1CSc1ccc(Br)cc1`, the inhibition was inactive: -4.2%.
With `COC(=O)CC1(c2ccc(OC)cc2)C(=O)c2ccccc2C1=O` the inhibition was inconclusive: -42.4%.
In the case of `CCN1CCN(CC#CCOc2ccccc2OC)CC1`, the inhibition was inconclusive: 13.2%.
`C=CCn1c(O)c(C(C)=NCc2cc(OC)cc(OC)c2)c(=O)[nH]c1=O` was tested, and the inhibition was inconclusive: 45.5%.
For `CC(C)(C)C1CCC(CN2CCC(CN3C(=O)C(=O)NC[C@@H]3Cc3ccccc3)CC2)CC1` (some centres undefined), the inhibition was inactive: -0.2%.
`O=C(Nc1ccc(N2CCOCC2)cc1)c1cccc2ccccc12` was tested, and the inhibition was inactive: -8.3%.
For `CCN(C(=O)c1ccco1)c1nc(-c2ccc(OC)cc2)cs1`, the inhibition was inconclusive: 25.6%.
`CCn1cnc2scc(-c3ccc(OC)cc3)c2c1=O` was tested, and the inhibition was inconclusive: -10.1%.
For `Cc1ccc(CNC(=O)C2CC(=O)OC23CCCC3)c(C)c1` (centres undefined), the inhibition was inactive: 2%.
In the case of `COc1c(/C=N/NC(=O)c2ccncc2)c(CCN(C)C(C)=O)cc2c1OCO2`, the inhibition was inconclusive: -3.2%.
`O=C(/C=C/c1ccccc1)NC(=S)NNC(=O)c1cccnc1` was tested, and the inhibition was inactive: -23%.
For `COCCn1c(C)cc(C(=O)COC(=O)C2CC(=O)N(CCc3ccc(OC)c(OC)c3)C2)c1C` (centres undefined), the inhibition was inactive: -13.1%.
In the case of `CC(=O)N(Cc1ccccc1)C(CC(=O)NCc1ccccc1)C(=O)O` (centres undefined), the inhibition was inactive: 2.6%.
In the case of `Cc1ccc(C(=O)NC(=S)NCc2ccccc2)cc1Br`, the inhibition was inconclusive: -8.6%.
With `CC(C)(C)OC(=O)N1CCC[C@H]1c1nnc(SCc2cccc(Cl)c2)o1` the inhibition was inconclusive: 15.9%.
With `CCC(=NCCCn1ccnc1)c1c(O)n(-c2ccccc2)c(=O)[nH]c1=O` the inhibition was inconclusive: 50.1%.
`CN(CC(=O)Nc1cccc(F)c1)C(=O)CCCN1C(=O)c2cccc3cccc(c23)C1=O` was tested, and the inhibition was inactive: -3.4%.
With `COCc1cc(OC(=O)N(C)C)nc(-c2ccc(C)c(Cl)c2)n1` the inhibition was inconclusive: 0.7%.
In the case of `O=[N+]([O-])c1ccc(N2CCOCC2)cc1NCc1ccccc1`, the inhibition was inactive: -1.4%.
`O=c1ncn(-c2cccc(Cl)c2)c2ccccc12` was tested, and the inhibition was inconclusive: -142%.
In the case of `O=C(c1cccs1)N(C(=O)c1cccs1)c1ccc(Br)cn1`, the inhibition was inactive: 1.3%.
In the case of `CCOC(=O)N1CCc2c(sc(NC(=O)CN(CC)CC)c2C#N)C1`, the inhibition was inconclusive: 1.6%.
With `O=C1c2cccnc2C(=O)N1Cc1ccco1` the inhibition was inactive: 3.7%.
For `COc1ccc(/C(C)=N/NC(=O)CNC(=O)Cc2ccccc2)c(OC)c1`, the inhibition was active: 38.5%.
`O=[N+]([O-])c1ccc(CN2CCCCCC2)cc1` was tested, and the inhibition was inconclusive: -19.6%.
In the case of `CC(C)c1nc2c([nH]1)c(=O)n(C)c(=O)n2C`, the inhibition was inconclusive: -3.6%.
`N#C/C(=C/c1ccc(O)c(O)c1)c1nc2ccccc2[nH]1` was tested, and the inhibition was inconclusive: -28.3%.
In the case of `CCc1ccccc1NS(=O)(=O)Cc1ccccc1`, the inhibition was inconclusive: 29.6%.
`CCc1cc2c3c(c(=O)oc2cc1OCC(=O)OC)CCCC3` was tested, and the inhibition was inconclusive: -14.9%.
With `Cc1nc2c(C)cccc2c2c1CCN2c1ccccc1F` the inhibition was inconclusive: 59.1%.
`CCOC(=O)/C=c1/s/c(=C/c2ccc3cc(OC)ccc3c2)c(=O)n1CC(=O)NCC1CCCO1` (centres undefined) was tested, and the inhibition was inactive: 23.9%.
For `CCc1ccc(OCC(=O)Nc2ccc(S(=O)(=O)N3CCOCC3)cc2)cc1`, the inhibition was inconclusive: -13.8%.
`COc1ccc(NC(=O)CCCc2ccccc2)cc1OC` was tested, and the inhibition was inconclusive: 9%.
In the case of `O=C(/C=C/c1ccccc1Cl)NCCCn1ccnc1`, the inhibition was inconclusive: -33.2%.
In the case of `COc1ccc(CCNC(=O)Cn2c(=O)n(Cc3ccco3)c(=O)c3ccc(Cl)cc32)cc1OC`, the inhibition was inconclusive: 12%.
In the case of `Cc1ccc(NC(=O)CCS(=O)(=O)c2ccc3c(c2)NC(=O)C(C)S3)nc1` (centres undefined), the inhibition was inactive: -3.5%.
In the case of `CCOc1ccc(NC(=O)c2ccccc2NC(=O)CNC2CCCC(C)C2C)cc1` (centres undefined), the inhibition was inconclusive: -1.9%.
`COC(OC)C1Nc2ccccc2C(=O)N1c1ccc(F)cc1` (centres undefined) was tested, and the inhibition was inconclusive: -386%.
`COc1ccc(C(CNC(=O)c2ccc(Br)o2)N2CCN(C)CC2)cc1` (centres undefined) was tested, and the inhibition was inconclusive: 5.2%.
With `CC1(C)CC(NC(=O)c2cc(S(=O)(=O)N3CCOCC3)c(Cl)cc2Cl)CC(C)(C)N1` the inhibition was inconclusive: -7.8%.
`Cc1ccc(C(C)C)cc1S(=O)(=O)NC1CC(C)(C)NC(C)(C)C1` was tested, and the inhibition was inconclusive: -29%.
